Taken from: PubChem BioAssay AID686938 (Drosophila RNAi Screening Center, 2013)

Aim: 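Looking for CRAC channel components and the factors controlling them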 (primary screen)
Cell system: Drosophila S2R+ cells
Knock-down reagent: long dsRNA against Drosophila genes, about 0.25 µg dsRNA per well, roughly 10,000 cells
Time to read-out: 5 days of knock-down before the calcium assay
Conditions: thapsigargin (SERCA pump blocker) to empty calcium stores; entry signal taken 4 min after adding it
Measured: 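Per-well fluo-4 fluorescence in two replicates, unnormalised, measured in resting cells and 4 min after store depletion by the SERCA blocker thapsigargin; ratio of the two present in few wells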
Scale: calcium entry signal: higher = stronger calcium signal after store depletion; resting calcium signal: higher = higher resting calcium signal
Active means: 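Hit if the duplicate-averaged plate z-score for entry over resting signal is under −3; wells with weak total dye signal (Fmax z < −2) or more than 5 off-targets removed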
Calls: active = strongly reduced calcium entry; inactive = no strong reduction
The screen tested about 23,000 reagents; shown is an unselected part of those that have a named target and a result. In the full data, 75 (0.33%) are marked active. 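Raw plate signals without normalisation; calls rest on plate z-scores that were not deposited; ratio present for only 364 wells.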 Not stated in the record: the dose of the treatment.

After knock-down of Adf1 (Adh transcription factor 1) [DRSC04941], the screen gave calcium entry signal, replicate 1 (fluorescence units) = 2.98e7; calcium entry signal, replicate 2 (fluorescence units) = 6.10e7; resting calcium signal, replicate 1 (fluorescence units) = 1.49e7; resting calcium signal, replicate 2 (fluorescence units) = 2.72e7; inactive. Silencing of Adf1 (Adh transcription factor 1) [DRSC04963] gave: calcium entry signal, replicate 1 (fluorescence units) = 3.50e7; resting calcium signal, replicate 1 (fluorescence units) = 1.87e7; inactive. With knock-down of CG11843 [DRSC14401], the record shows calcium entry signal, replicate 1 (fluorescence units) = 3.48e7; calcium entry signal, replicate 2 (fluorescence units) = 6.06e7; resting calcium signal, replicate 1 (fluorescence units) = 1.81e7; resting calcium signal, replicate 2 (fluorescence units) = 2.27e7; inactive. With knock-down of CG31525 [DRSC12004] the results were calcium entry signal, replicate 1 (fluorescence units) = 3.50e7; calcium entry signal, replicate 2 (fluorescence units) = 2.91e7; resting calcium signal, replicate 1 (fluorescence units) = 1.82e7; resting calcium signal, replicate 2 (fluorescence units) = 1.43e7; inactive. For CG12643 [DRSC17849], the entry reads calcium entry signal, replicate 1 (fluorescence units) = 4.05e7; calcium entry signal, replicate 2 (fluorescence units) = 3.84e7; resting calcium signal, replicate 1 (fluorescence units) = 1.83e7; resting calcium signal, replicate 2 (fluorescence units) = 1.72e7; inactive. IFT52 (Intraflagellar transport 52) [DRSC03271] showed calcium entry signal, replicate 1 (fluorescence units) = 3.13e7; calcium entry signal, replicate 2 (fluorescence units) = 2.60e7; resting calcium signal, replicate 1 (fluorescence units) = 1.52e7; resting calcium signal, replicate 2 (fluorescence units) = 1.21e7; inactive.

After knock-down of capt (capulet) [DRSC00676] the results were calcium entry signal, replicate 1 (fluorescence units) = 3.64e7; calcium entry signal, replicate 2 (fluorescence units) = 3.39e7; resting calcium signal, replicate 1 (fluorescence units) = 1.65e7; resting calcium signal, replicate 2 (fluorescence units) = 1.47e7; inactive. After knock-down of capt (capulet) [DRSC00806], the screen gave calcium entry signal, replicate 1 (fluorescence units) = 3.68e7; calcium entry signal, replicate 2 (fluorescence units) = 3.36e7; resting calcium signal, replicate 1 (fluorescence units) = 1.82e7; resting calcium signal, replicate 2 (fluorescence units) = 1.58e7; inactive. CG12825 [DRSC06174] scored calcium entry signal, replicate 1 (fluorescence units) = 2.84e7; calcium entry signal, replicate 2 (fluorescence units) = 4.12e7; resting calcium signal, replicate 1 (fluorescence units) = 1.40e7; resting calcium signal, replicate 2 (fluorescence units) = 1.91e7; inactive. Coq9 (Coenzyme Q9) [DRSC22913] showed calcium entry signal, replicate 1 (fluorescence units) = 4.36e7; calcium entry signal, replicate 2 (fluorescence units) = 3.60e7; resting calcium signal, replicate 1 (fluorescence units) = 2.53e7; resting calcium signal, replicate 2 (fluorescence units) = 1.77e7; inactive. Against CG14984 [DRSC08442], the entry reads calcium entry signal, replicate 1 (fluorescence units) = 3.85e7; calcium entry signal, replicate 2 (fluorescence units) = 4.99e7; resting calcium signal, replicate 1 (fluorescence units) = 1.93e7; resting calcium signal, replicate 2 (fluorescence units) = 2.15e7; inactive. After knock-down of CG11158 [DRSC19389] the results were calcium entry signal, replicate 1 (fluorescence units) = 4.54e7; calcium entry signal, replicate 2 (fluorescence units) = 3.01e7; resting calcium signal, replicate 1 (fluorescence units) = 2.21e7; resting calcium signal, replicate 2 (fluorescence units) = 1.45e7; inactive.

After knock-down of side-VIII (sidestep VIII) [DRSC05880], the record shows calcium entry signal, replicate 1 (fluorescence units) = 3.36e7; calcium entry signal, replicate 2 (fluorescence units) = 3.87e7; resting calcium signal, replicate 1 (fluorescence units) = 1.70e7; resting calcium signal, replicate 2 (fluorescence units) = 3.47e7; inactive. Against side-VIII (sidestep VIII) [DRSC05883], the values are calcium entry signal, replicate 1 (fluorescence units) = 2.22e7; calcium entry signal, replicate 2 (fluorescence units) = 4.59e7; resting calcium signal, replicate 1 (fluorescence units) = 1.09e7; resting calcium signal, replicate 2 (fluorescence units) = 4.12e7; inactive. Knock-down of side-VIII (sidestep VIII) [DRSC06157] came out at: calcium entry signal, replicate 1 (fluorescence units) = 4.02e7; calcium entry signal, replicate 2 (fluorescence units) = 4.35e7; resting calcium signal, replicate 1 (fluorescence units) = 1.83e7; resting calcium signal, replicate 2 (fluorescence units) = 2.40e7; inactive. With knock-down of side-VIII (sidestep VIII) [DRSC23187] the results were calcium entry signal, replicate 1 (fluorescence units) = 5.14e7; calcium entry signal, replicate 2 (fluorescence units) = 3.69e7; resting calcium signal, replicate 1 (fluorescence units) = 2.56e7; resting calcium signal, replicate 2 (fluorescence units) = 1.54e7; inactive. Depletion of CG4622 [DRSC04479] came out at: calcium entry signal, replicate 1 (fluorescence units) = 4.30e7; resting calcium signal, replicate 1 (fluorescence units) = 2.24e7; inactive. Gyc88E (Guanylyl cyclase at 88E) [DRSC15547] gave calcium entry signal, replicate 1 (fluorescence units) = 4.34e7; calcium entry signal, replicate 2 (fluorescence units) = 6.10e7; resting calcium signal, replicate 1 (fluorescence units) = 2.06e7; resting calcium signal, replicate 2 (fluorescence units) = 6.50e7; inactive.

Depletion of mRpS31 (mitochondrial ribosomal protein S31) [DRSC10556] came out at: calcium entry signal, replicate 1 (fluorescence units) = 3.99e7; calcium entry signal, replicate 2 (fluorescence units) = 4.74e7; resting calcium signal, replicate 1 (fluorescence units) = 1.68e7; resting calcium signal, replicate 2 (fluorescence units) = 3.05e7; inactive. Knock-down of CG32686 [DRSC17645] resulted in: calcium entry signal, replicate 1 (fluorescence units) = 3.74e7; calcium entry signal, replicate 2 (fluorescence units) = 4.02e7; resting calcium signal, replicate 1 (fluorescence units) = 1.64e7; resting calcium signal, replicate 2 (fluorescence units) = 1.86e7; inactive. With knock-down of CG3918 [DRSC18331], the record shows calcium entry signal, replicate 1 (fluorescence units) = 2.28e7; calcium entry signal, replicate 2 (fluorescence units) = 2.06e7; resting calcium signal, replicate 1 (fluorescence units) = 1.24e7; resting calcium signal, replicate 2 (fluorescence units) = 1.17e7; inactive. With knock-down of CG3918 [DRSC23159], the record shows calcium entry signal, replicate 1 (fluorescence units) = 3.03e7; calcium entry signal, replicate 2 (fluorescence units) = 4.59e7; resting calcium signal, replicate 1 (fluorescence units) = 1.47e7; resting calcium signal, replicate 2 (fluorescence units) = 1.86e7; inactive. boil (boilerman) [DRSC17872] showed calcium entry signal, replicate 1 (fluorescence units) = 3.60e7; calcium entry signal, replicate 2 (fluorescence units) = 3.93e7; resting calcium signal, replicate 1 (fluorescence units) = 1.73e7; resting calcium signal, replicate 2 (fluorescence units) = 1.80e7; inactive. CG43174 (retired record) [DRSC09518] showed calcium entry signal, replicate 1 (fluorescence units) = 3.36e7; calcium entry signal, replicate 2 (fluorescence units) = 3.38e7; resting calcium signal, replicate 1 (fluorescence units) = 1.65e7; resting calcium signal, replicate 2 (fluorescence units) = 1.89e7; inactive.

Against Chd1 (Chromodomain-helicase-DNA-binding protein 1) [DRSC00745], the values are calcium entry signal, replicate 1 (fluorescence units) = 3.77e7; resting calcium signal, replicate 1 (fluorescence units) = 2.00e7; inactive. Against CG9970 [DRSC08644] the deposit lists calcium entry signal, replicate 1 (fluorescence units) = 4.23e7; calcium entry signal, replicate 2 (fluorescence units) = 4.08e7; resting calcium signal, replicate 1 (fluorescence units) = 2.09e7; resting calcium signal, replicate 2 (fluorescence units) = 1.87e7; inactive. After knock-down of fig (fos intronic gene) [DRSC16270] the results were calcium entry signal, replicate 1 (fluorescence units) = 4.80e7; calcium entry signal, replicate 2 (fluorescence units) = 5.98e7; resting calcium signal, replicate 1 (fluorescence units) = 2.28e7; resting calcium signal, replicate 2 (fluorescence units) = 2.28e7; inactive.

Ordered by “calcium entry signal, replicate 2 (fluorescence units)” (ascending): some entries from above
CG11158 [DRSC19389] | calcium entry signal, replicate 1 (fluorescence units): 4.54e7; calcium entry signal, replicate 2 (fluorescence units): 3.01e7; resting calcium signal, replicate 1 (fluorescence units): 2.21e7; resting calcium signal, replicate 2 (fluorescence units): 1.45e7; Outcome: inactive
side-VIII (sidestep VIII) [DRSC05880] | calcium entry signal, replicate 1 (fluorescence units): 3.36e7; calcium entry signal, replicate 2 (fluorescence units): 3.87e7; resting calcium signal, replicate 1 (fluorescence units): 1.70e7; resting calcium signal, replicate 2 (fluorescence units): 3.47e7; Outcome: inactive
